Laboratory results reported in patent US20210070855A1.
No constants are given. Whether binding was seen depends on the method and setting. Some results given as binding are weak or reduced against the parent protein; the word gives no strength.

Amino acid sequences for entries named in this document (tags omitted). A change or cut given only in a name is not applied to a line headed by its entry.
UniProt Q08722: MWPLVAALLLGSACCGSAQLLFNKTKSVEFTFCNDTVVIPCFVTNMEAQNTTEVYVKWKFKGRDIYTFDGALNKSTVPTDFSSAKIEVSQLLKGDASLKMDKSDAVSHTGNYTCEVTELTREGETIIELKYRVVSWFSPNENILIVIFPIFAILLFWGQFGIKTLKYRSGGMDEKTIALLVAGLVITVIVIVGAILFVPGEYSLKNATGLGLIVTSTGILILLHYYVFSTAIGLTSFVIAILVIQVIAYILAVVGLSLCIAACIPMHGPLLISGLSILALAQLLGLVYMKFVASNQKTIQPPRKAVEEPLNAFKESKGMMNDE

B1: 107F11C4 (antibody, V domains shown)
VH: EVQLQQSGAEFVKPGASVKLSCTASGFNIEDTYMHWVKQRPEQGLEWIGMIDPANGKTKYGPRFQDKATVTADTSSNTANLQLSSLTSEDTAVYYCADGIGYYVGAMDYWGQGTSVTVSS
VL: DIQMNQSPSSLSASLGDTITITCHASQNINVWLSWYQQKPGNIPKLLIYKASNLHTGVPSRFSGSGSGTGFTLTISSLQPEDIATYYCQQGHSYPYTFGGGTKLEIK
B2: 107F11F10 (antibody, V domains shown)
VH: EVQLQQSGAEFVKPGASVKLSCTASGFNIEDTYMHWVKQRPEQGLEWIGMIDPANGKTKYGPRFQDKATVTADTSSNTANLQLSSLTSEDTAVYYCADGIGYYVGAMDYWGQGTSVTVSS
VL: DIQMNQSPSSLSASLGDTITITCHASQNINVWLSWYQQKPGNIPKLLIYKASNLHTGVPSRFSGSGSGTGFTLTISSLQPEDIATYYCQQGHSYPYTFGGGTKLEIK
B3: 98G5F11 (antibody, V domains shown)
VH: QVQLQQSGPQLVRPGASVKISCKASGYSFTNYWMHWMKQRPGQGLEWIGMIDPSDSETRLNQQFKDKATLTVDKSSSTAYMQLSSPTSEDSAVYYCARLGRYYFDFWGQGTTLTVSS
VL: NIVMTQSPKSMSVSVGERVTLSCRASEIVGTYVSWYQQKPEQSPKLLIYGASNRFTGVPDRFTGSRSATDFSLTISNVQAEDLADYLCGQSYDSPYTFGGGTKLEIK
B4: 107F11B11 (antibody, V domains shown)
VH: EVQLQQSGAEFVKPGASVKLSCTASGFNIEDTYMHWVKQRPEQGLEWIGMIDPANGKTKYGPRFQDKATVTADTSSNTANLQLSSLTSEDTAVYYCADGIGYYVGAMDYWGQGTSVTVSS
VL: DIQMNQSPSSLSASLGDTITITCHASQNINVWLSWYQQKPGNIPKLLIYKASNLHTGVPSRFSGSGSGTGFTLTISSLQPEDIATYYCQQGHSYPYTFGGGTKLEIK
B5: 112E5F2 (antibody, V domains shown)
VH: QVQLQQSGPQLVRPGASVKISCKASGYSFTNNWMHWMKQRPGQGLEWIGMIDPSDSETRLNQQFRDKATLTVDKTSSTAYMQLSSPTSEDSAVYYCARLGRYYFDYWGLGTTLTVSS
VL: NIVMTQSPKSMSVSVGERVTMNCRASEIVGTYVSWYQQKPEQSPKLLIYGAFNRYTGVPDRFTGSRSGTDFSLNISNVQAEDLADYLCGQSYDSPYTFGGGTKLEIK
B6: 98E2E7 (antibody, V domains shown)
VH: QVQLQQSGPQLVRPGASVKISCKASGYSFTNHWMHWMKQRPGQGLEWIGMIDPSDSETRLNQQFKDKATLTVDKSSSTAYMQLSSPTSEDSAVFYCARLGRYYFDYWGQGTTLTVSS
VL: NIVMTQSPKSMSVSVGERVTLSCRASDIVGTYVSWYQQKPEQSPKLLIYGASNRYTGVPDRFTGSRSATDFSLTISNVQAEDLADYLCGQSYDSPYTFGGGTKLEIK
B7: 98E2E12 (antibody, V domains shown)
VH: QVQLQQSGPQLVRPGASVKISCKASGYSFTNHWMHWMKQRPGQGLEWIGMIDPSDSETRLNQQFKDKATLTVDKSSSTAYMQLSSPTSEDSAVFYCARLGRYYFDYWGQGTTLTVSS
VL: NIVMTQSPKSMSVSVGERVTLSCRASDIVGTYVSWYQQKPEQSPKLLIYGASNRYTGVPDRFTGSRSATDFSLTISNVQAEDLADYLCGQSYDSPYTFGGGTKLEIK
B8: 98G5F6 (antibody, V domains shown)
VH: QVQLQQSGPQLVRPGASVKISCKASGYSFTNYWMHWMKQRPGQGLEWIGMIDPSDSETRLNQQFKDKATLTVDKSSSTAYMQLSSPTSEDSAVYYCARLGRYYFDFWGQGTTLTVSS
VL: NIVMTQSPKSMSVSVGERVTLSCRASEIVGTYVSWYQQKPEQSPKLLIYGASNRFTGVPDRFTGSRSATDFSLTISNVQAEDLADYLCGQSYDSPYTFGGGTKLEIK
B9: 108VH4.M4_VL1.M1-hIgG2 (antibody)
heavy: EVQLVQSGAEVKKPGSSVKVSCKASGYSFTHHWIHWVRQAPGQGLEWMGMIDASDSETRLSQKFKDRVTITADKSTSTAYMELSSLRSEDTAVYYCARLGRYYFDYWGQGTTVTVSSASTKGPSVFPLAPCSRSTSESTAALGCLVKDYFPEPVTVSWNSGALTSGVHTFPAVLQSSGLYSLSSVVTVPSSNFGTQTYTCNVDHKPSNTKVDKTVERKCCVECPPCPAPPVAGPSVFLFPPKPKDTLMISRTPEVTCVVVDVSHEDPEVQFNWYVDGVEVHNAKTKPREEQFNSTFRVVSVLTVVHQDWLNGKEYKCKVSNKGLPAPIEKTISKTKGQPREPQVYTLPPSREEMTKNQVSLTCLVKGFYPSDIAVEWESNGQPENNYKTTPPMLDSDGSFFLYSKLTVDKSRWQQGNVFSCSVMHEALHNHYTQKSLSLSPGK
light: EIVLTQSPATLSLSPGERATLSCRASENVGTYISWYQQKPGQAPRLLIYGASNRYTGIPARFSGSGSGTDFTLTISSLEPEDFAVYYCGESYGHLYTFGGGTKVEIKRTVAAPSVFIFPPSDEQLKSGTASVVCLLNNFYPREAKVQWKVDNALQSGNSQESVTEQDSKDSTYSLSSTLTLSKADYEKHKVYACEVTHQGLSSPVTKSFNRGEC

Experiments:
[1] = target: human CD47-His protein (human) (UniProt Q08722); experiment: SPR (Biacore T200), antibody captured on the chip, human CD47-His as analyte
CD47 protein = experiment: ELISA on CD47 protein; x axis is log10 of mAb (ng/ml)
[2] = target: cynomolgus monkey CD47 on CHO-K1 cells (cynomolgus monkey); experiment: flow cytometry on CHO-K1/cyno CD47 cells
[3] = target: cynomolgus monkey CD47 on CHO-K1 cells (cynomolgus monkey); experiment: flow cytometry on CHO-K1/cynoCD47 cells

| Binder | binding [1] | binding (CD47 protein) | binding [2] | binding [3] |
| --- | --- | --- | --- | --- |
| B1 | binds |  |  |  |
| B2 | binds |  |  |  |
| B3 | binds | binds | binds |  |
| B4 | binds | binds | binds |  |
| B5 |  | binds |  |  |
| B6 |  |  | binds |  |
| B7 |  |  | binds |  |
| B8 | binds |  | binds |  |
| B9 |  |  |  | binds |
